According to patent US20190225649A1:
No constants are given. Whether binding was seen depends on the method and setting. Binding seen in cells or lysates may run through a third protein. Some binding calls cover weakened binding; strength is not graded here.

Amino acid sequences for entries named in this document (tags omitted). Residues count along the entry.
UniProt P05555, residues 17-1153: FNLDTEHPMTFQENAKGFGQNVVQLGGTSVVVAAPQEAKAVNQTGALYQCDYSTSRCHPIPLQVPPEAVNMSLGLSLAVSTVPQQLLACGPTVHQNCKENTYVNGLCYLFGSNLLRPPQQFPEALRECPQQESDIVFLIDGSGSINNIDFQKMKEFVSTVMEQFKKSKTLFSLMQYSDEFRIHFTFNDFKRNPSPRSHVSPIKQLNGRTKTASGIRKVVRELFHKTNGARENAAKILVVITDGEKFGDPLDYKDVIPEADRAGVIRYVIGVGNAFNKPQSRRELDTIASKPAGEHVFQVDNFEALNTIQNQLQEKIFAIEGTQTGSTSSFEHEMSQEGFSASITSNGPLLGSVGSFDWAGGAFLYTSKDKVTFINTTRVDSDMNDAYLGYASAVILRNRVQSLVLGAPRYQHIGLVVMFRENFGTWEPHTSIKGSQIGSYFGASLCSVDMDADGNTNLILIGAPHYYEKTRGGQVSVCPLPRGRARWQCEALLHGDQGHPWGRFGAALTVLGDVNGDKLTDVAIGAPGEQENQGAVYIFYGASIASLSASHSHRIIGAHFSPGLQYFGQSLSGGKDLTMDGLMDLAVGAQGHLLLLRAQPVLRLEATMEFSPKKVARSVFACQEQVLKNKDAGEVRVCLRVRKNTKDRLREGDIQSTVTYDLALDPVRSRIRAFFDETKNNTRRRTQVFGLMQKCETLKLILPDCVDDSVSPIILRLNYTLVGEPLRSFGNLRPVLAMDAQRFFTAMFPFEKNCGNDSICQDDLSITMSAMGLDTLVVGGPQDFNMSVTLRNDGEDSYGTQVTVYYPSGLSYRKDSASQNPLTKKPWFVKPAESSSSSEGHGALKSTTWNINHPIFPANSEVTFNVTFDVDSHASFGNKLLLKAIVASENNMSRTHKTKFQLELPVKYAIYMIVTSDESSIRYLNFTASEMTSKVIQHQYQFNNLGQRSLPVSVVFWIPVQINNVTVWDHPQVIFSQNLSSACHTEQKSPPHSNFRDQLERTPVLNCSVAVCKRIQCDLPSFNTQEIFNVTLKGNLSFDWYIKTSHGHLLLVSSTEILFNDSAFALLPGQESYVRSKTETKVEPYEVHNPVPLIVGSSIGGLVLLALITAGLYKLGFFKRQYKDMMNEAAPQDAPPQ

How the values were obtained:
[1] = target: T1, CD47 on mouse microglial cells / mouse peritoneal recruited macrophages (mouse) (UniProt Q61735); assay: Duolink proximity ligation assay, confocal micrographs
T1 sequence (looked up): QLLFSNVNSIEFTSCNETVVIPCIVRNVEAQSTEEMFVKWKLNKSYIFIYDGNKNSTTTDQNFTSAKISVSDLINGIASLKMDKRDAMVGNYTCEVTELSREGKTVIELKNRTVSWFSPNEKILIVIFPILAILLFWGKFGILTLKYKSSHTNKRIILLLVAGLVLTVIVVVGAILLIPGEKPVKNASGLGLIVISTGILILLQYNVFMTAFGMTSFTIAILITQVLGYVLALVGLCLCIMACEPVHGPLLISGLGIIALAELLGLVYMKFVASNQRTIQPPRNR

[2] = target: T1, CD47 on mouse microglial cells / mouse peritoneal recruited macrophages (mouse); assay: Duolink proximity ligation assay on fixed mouse peritoneal macrophages; complexes not observed in CD47-/- mice
[3] = target: T1, CD47 on mouse microglial cells / mouse peritoneal recruited macrophages (mouse); assay: Duolink proximity ligation assay on fixed mouse peritoneal macrophages

Measured: binding

CD11b on mouse peritoneal recruited macrophages (from UniProt P05555 17-1153) (receptor)
binds: [1] | [2] | [3]
